The experiment deals with Nsun2 (RNA 5-methylcytosine methyltransferase), endogenous in mouse Th17 cells (mouse (endogenous in Th17 cells)) (UniProt Q1HFZ0). Nature of the experiment: affinity purification with mass spectrometry; endogenous Nsun2 immunoprecipitated with Nsun2 antibody and protein A/G Dynabeads from RIPA lysate of Th17 cells induced for 4 days; gel analysed by mass spectrometry.

Amino acid sequences for entries named in this document (tags omitted). A change or cut given only in a name is not applied to a line headed by its entry. Chains listed by the source or under a name are the forms on record and can include a tag or linker.
UniProt Q1HFZ0: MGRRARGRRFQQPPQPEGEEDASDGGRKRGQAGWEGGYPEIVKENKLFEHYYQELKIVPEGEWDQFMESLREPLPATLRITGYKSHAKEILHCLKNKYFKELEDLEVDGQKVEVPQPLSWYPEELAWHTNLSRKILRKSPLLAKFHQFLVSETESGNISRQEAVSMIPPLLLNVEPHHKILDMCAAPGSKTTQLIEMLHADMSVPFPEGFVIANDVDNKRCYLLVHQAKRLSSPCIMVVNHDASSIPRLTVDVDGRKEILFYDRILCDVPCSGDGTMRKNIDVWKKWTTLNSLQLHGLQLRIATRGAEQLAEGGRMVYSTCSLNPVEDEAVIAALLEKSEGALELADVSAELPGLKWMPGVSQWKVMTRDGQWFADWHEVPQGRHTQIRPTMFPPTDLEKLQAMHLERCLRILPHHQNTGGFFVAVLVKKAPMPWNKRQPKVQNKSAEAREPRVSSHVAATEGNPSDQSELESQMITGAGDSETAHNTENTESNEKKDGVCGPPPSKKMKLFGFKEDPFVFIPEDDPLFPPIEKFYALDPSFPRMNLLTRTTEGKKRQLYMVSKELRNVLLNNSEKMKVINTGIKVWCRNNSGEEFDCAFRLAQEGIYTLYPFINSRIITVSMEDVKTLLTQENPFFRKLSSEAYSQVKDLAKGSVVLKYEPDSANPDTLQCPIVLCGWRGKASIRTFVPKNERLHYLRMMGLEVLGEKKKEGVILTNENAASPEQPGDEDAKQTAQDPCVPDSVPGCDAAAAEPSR
Retinoic acid receptor-related orphan receptor gamma t (RoRγt), endogenous in mouse Th17 cells (P51450-2, form named): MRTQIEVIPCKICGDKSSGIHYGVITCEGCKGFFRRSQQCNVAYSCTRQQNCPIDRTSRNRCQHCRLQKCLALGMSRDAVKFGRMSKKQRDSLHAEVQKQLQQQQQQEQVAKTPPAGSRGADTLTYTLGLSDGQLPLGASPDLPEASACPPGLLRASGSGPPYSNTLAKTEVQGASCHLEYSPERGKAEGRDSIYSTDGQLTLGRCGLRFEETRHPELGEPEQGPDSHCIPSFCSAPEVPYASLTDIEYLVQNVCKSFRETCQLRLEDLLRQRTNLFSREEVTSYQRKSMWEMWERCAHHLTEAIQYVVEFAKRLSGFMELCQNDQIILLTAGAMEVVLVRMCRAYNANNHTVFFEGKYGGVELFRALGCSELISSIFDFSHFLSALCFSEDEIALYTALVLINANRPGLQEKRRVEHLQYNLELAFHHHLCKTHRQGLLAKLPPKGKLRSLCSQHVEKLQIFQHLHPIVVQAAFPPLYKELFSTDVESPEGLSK

No constants are given. Whether binding was seen depends on the method and setting. Binding seen in cells or lysates may run through a third protein. These calls come from enrichment with a bait or labelling near it, and not all partners need be listed.

On to “Retinoic acid receptor-related orphan receptor gamma t (RoRγt), endogenous in mouse Th17 cells (from UniProt P51450-2 1-495)”, for which the binding result is listed as “binds”.

(Values after article PMC9932167.)
